Source: PubChem BioAssay AID2685 (National Center for Advancing Translational Sciences (NCATS), 2010)
Some of the results follow. Further columns of the screen follow, without active or inactive calls. The list favours compounds with an active or inconclusive main result. The note in brackets gives the kind of curve behind each potency; many fits are weak.

Assay: qHTS Assay for Lipid Storage Modulators in Drosophila S3 Cells;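 for cell number change: cells counted by Cell Tracker Red CMTPX staining in the red channel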
Details: BODIPY lipid droplet fluorescence, 18-24 h; for cell number change: measured here: cell count max response, cells fed with added oleic acid
How it was run: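 Drosophila S3 cells loaded with oleic acid (400 uM, as added) and compounds at several concentrations; lipid droplets imaged by 488-nm laser-scanning cytometry, 500–530 nm intensity and object ratio to cell channel. Percent activity normalized to 20 uM Triacsin C.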

[1] = measured here: cell number channel AC50, cells fed with added oleic acid
[2] = measured here: lipid fluorescence (Fed channel) AC50, cells fed with added oleic acid

| SMILES | cell number change | AC50 [1] | AC50 [2] |
| --- | --- | --- | --- |
| NS(=O)(=O)c1ccc(NC(=O)COC(=O)C2CCCCC2)cc1 | -41.2% | 29.1 µM [falling, single point] | – |
| Cc1ccc(-c2nn(C)c(=O)c3ccccc23)cc1CNC(=O)CSc1nc2ccccc2o1 | – | – | 2.06 µM [rising, partial curve, poor fit] |
| O=C(O)c1cccc(N/N=C/c2sc(N3CCOCC3)nc2-c2ccccc2)c1 | 0.141% | – | – |
| CCN(CCNC(=O)CCCn1nc(C)n2c(cc3sccc32)c1=O)c1ccccc1 | 30.8% | 20.6 µM [rising, single point] | 18.4 µM [rising, single point] |
| COc1ccc(NC(=O)CC(C)n2ccnc2)cc1 (configuration not stated) | – | – | 23.1 µM [rising, single point] |
| COc1ccc(C(=O)Oc2ccc3c(C)cc(=O)oc3c2C(C)=O)cc1 | 5.3% | – | – |
| Cc1ccc(S(=O)(=O)NCc2ccccc2C)cc1 | 14.2% | – | – |
| CCOCC(=O)Nc1c(C(=O)Nc2ccc3c(c2)OCCO3)oc2ccccc12 | 23% | – | 6.51 µM [rising, single point] |
| O=S1(=O)CCOCCCN1Cc1cccc(F)c1 | 3.89% | – | 5.17 µM [rising, full curve] |
| C[C@H]1CN(C2CCCCC2)C(=O)[C@@H]1CC(=O)NCc1ccccc1 | 5.69% | – | 3.66 µM [rising, full curve] |
| COc1ccc(C2NC(=O)NC3=C2CCc2ccccc23)cc1 (configuration not stated) | 9.63% | – | 6.51 µM [rising, single point] |
| N#CCSc1nnc(Nc2ccccc2)s1 | 39.4% | 0.082 µM [rising, full curve] | – |
| CCc1nnc(NC(=O)C2CCCN2C(=O)NC2CCCCC2)s1 (configuration not stated) | -4.45% | – | 29.1 µM [falling, partial curve] |
| COc1ccc(-n2c(SCC(=O)C(C)(C)C)nc3c(sc(=S)n3-c3ccccc3)c2=O)c(OC)c1 | 104% | 29.1 µM [rising, single point] | 7.31 µM [rising, partial curve] |
| Cc1cc(S(=O)(=O)N2CCN=C2c2ccccc2)ccc1F | 45.6% | 10.3 µM [rising, partial curve, poor fit] | – |
| Cc1cc(C)n2cc(CSc3nnc(SCc4cn5c(C)cc(C)nc5n4)s3)nc2n1 | 8.91% | – | – |
| Nc1nccnc1C(=O)OCC(=O)N1CCN(S(=O)(=O)c2ccc(Cl)cc2)CC1 | 26% | – | 20.6 µM [rising, partial curve] |
| COc1ccc(C(C(=O)NC2CCCCC2)N(CC2CCCO2)C(=O)CNC(=O)c2ccco2)cc1 (configuration not stated) | 36.5% | – | 6.51 µM [rising, single point] |
| Cc1ccc(C(=O)CCNc2ccc(Br)cc2)o1 | 85.5% | 20.6 µM [rising, single point] | – |
| Cc1cccn2c(=O)c3cc(C(=O)NCCC4=CCCCC4)n(C)c3nc12 | – | – | 11.6 µM [falling, partial curve] |
| CSc1nnc(NC(=O)c2ccc3c(c2)OCO3)s1 | 27.2% | – | 2.91 µM [rising, full curve] |

| SMILES | cell number change | AC50 [1] | AC50 [2] |
| --- | --- | --- | --- |
| CCCc1cc(=O)[nH]c2nnc(SCC(=O)Nc3cc(C)on3)n12 | -5.22% | – | – |
| Cc1ccc(NC(C(N)=O)c2c(C)[nH]c(=O)[nH]c2=O)cc1 (configuration not stated) | -1.98% | – | – |
| COc1ccc(-c2nc(CSCC(=O)NCCC3=CCCCC3)c(C)o2)cc1OC | -1.31% | – | 8.2 µM [falling, full curve, poor fit] |
| CC(Oc1ccc(Cl)cc1)C(=O)N1CCN(C(=O)c2ccco2)CC1 (configuration not stated) | 16% | 0.461 µM [falling, single point] | 0.461 µM [falling, single point] |
| N=C(N)c1ccc(/C=C/c2ccc(C(=N)N)cc2O)cc1 | -15.7% | – | – |
| Cc1cccc(OCc2nnc(SCC(=O)NC3CCCCC3)n2C)c1 | -0.901% | – | 18.4 µM [rising, partial curve, poor fit] |
| CC(CC(=O)O)CC(=O)Nc1cc([N+](=O)[O-])ccc1O (configuration not stated) | 24.4% | 0.517 µM [falling, single point] | 0.58 µM [falling, single point] |
| CN1CCN(C(=O)CN2C(=O)COc3ccc(S(=O)(=O)N4CCOCC4)cc32)CC1 | 31.3% | 7.31 µM [rising, partial curve] | – |
| CC1=C/C(=C(\c2ccc(O)c(C)c2)c2ccccc2S(=O)(=O)O)C=CC1=O | 10.8% | 0.146 µM [falling, full curve, poor fit] | – |
| CCn1c(CC(=O)Nc2ccccc2F)nnc1SCC(=O)NC1CCCCC1 | -7.62% | – | – |
| N#Cc1cn(Cc2ccccc2)c2ccccc12 | – | – | 1.64 µM [falling, partial curve] |
| CNC(=O)C1CCN(C(=O)c2ccc(-c3ccccc3)cc2)CC1 | 33% | 1.03 µM [rising, full curve, poor fit] | – |
| NS(=O)(=O)c1ccc(CNC(=O)c2cc(-c3ccccc3)nc3ccccc23)cc1 | -35.1% | 18.4 µM [falling, single point] | 29.1 µM [falling, single point] |
| O=C(NCc1cn2ccsc2n1)c1c(F)cccc1Cl | 39.4% | 29.1 µM [rising, single point] | 13 µM [rising, partial curve] |
| CN(C)c1oc(-c2ccccc2Cl)nc1S(=O)(=O)c1ccccc1 | 16.1% | – | 0.00411 µM [rising, full curve, poor fit] |
| Cc1ccc(Cn2c(C3CCCN3c3nc(C)cs3)nc3cc(C(F)(F)F)ccc32)cc1 (configuration not stated) | 15.9% | – | 10.3 µM [rising, partial curve] |
| CC(C)c1ccc(S(=O)(=O)c2cnc(=S)[nH]c2N)cc1 | -2.13% | – | – |
| Cc1ccc(S(=O)(=O)NCc2ccc(C(=O)N3CCN(c4ccccn4)CC3)cc2)cc1 | 7.93% | – | 4.11 µM [rising, full curve, poor fit] |
| COc1ccc(OC)c(NC(=O)C2CC(=O)n3ncnc3N2)c1 (configuration not stated) | -23% | – | – |
| C/C(=N\NC(=O)OC(C)(C)C)c1ccc[nH]1 | 14.6% | – | – |
| Cc1ccc(S(=O)(=O)/C(C#N)=C/c2c(N3CC(C)OC(C)C3)nc3c(C)cccn3c2=O)cc1 (configuration not stated) | 60.4% | 23.1 µM [rising, single point] | 1.46 µM [rising, partial curve] |

| SMILES | cell number change | AC50 [1] | AC50 [2] |
| --- | --- | --- | --- |
| O=C(COc1cccc(Oc2ccccc2)c1)Nc1ccc(SC(F)F)cc1 | 57.9% | 29.1 µM [rising, single point] | – |
| CC(C)NS(=O)(=O)c1ccc(OCC(=O)NCCC2=CCCCC2)cc1 | 6.2% | – | 0.0731 µM [falling, full curve, poor fit] |
| CCCCCCCCCCCCCCCC(O)C(N)CO (configuration not stated) | 14.1% | – | 0.0731 µM [falling, full curve, poor fit] |
| Cc1ccc(-c2nc(-c3ccncc3)no2)cc1Cl | 24% | – | 2.06 µM [rising, full curve] |
| CSc1c(-c2ccccn2)c(N)nn1C(=O)C1CC1 | -34.6% | 18.4 µM [falling, single point] | 25.9 µM [falling, single point] |
| Cc1cccc(NC(=O)CSc2nnc(-c3ccccc3)n2N)c1 | -53.2% | 29.1 µM [falling, single point] | – |
| CCc1ccc(NS(=O)(=O)c2ccc3[nH]cc(C(=O)N4CCc5ccccc54)c(=O)c3c2)cc1 | 7.5% | – | 25.9 µM [rising, partial curve, poor fit] |
| CC1CC(C)(C)NC(=S)N1CCC(=O)N1c2ccccc2CC1C (configuration not stated) | 46% | 0.231 µM [rising, full curve, poor fit] | – |
| COc1ccc(OC)c(/C=N/NC(=O)CSc2cc(C)nc3c(OC)cccc23)c1 | -68.2% | 16.4 µM [falling, partial curve] | 20.6 µM [falling, partial curve, poor fit] |
| O=C(NN1C(=O)c2cc(Br)ccc2NC1c1ccccc1Cl)c1ccncc1 (configuration not stated) | 13.4% | 1.64 µM [rising, partial curve, poor fit] | 0.82 µM [rising, full curve, poor fit] |
| O=C(NC(Cc1ccc2c(c1)OCO2)C(=O)NC(Cc1ccccc1)C(=O)O)c1ccccc1 (configuration not stated) | 4.96% | – | – |
| Cc1[nH][nH]c(=O)c1C(c1ccc(-c2ccccc2C(=O)O)o1)c1c(C)[nH][nH]c1=O | -29% | – | 0.731 µM [rising, single point] |
| CCn1nc(C(=O)Nc2cc(Cl)ccc2-n2cncn2)c2ccccc2c1=O | -14.4% | – | 5.17 µM [rising, partial curve] |
| CCOc1cc(C2CC(=O)NC(SCC)=C2C#N)ccc1O (configuration not stated) | 9.45% | – | 29.1 µM [rising, single point] |
| O=C(OCc1nnc(-c2ccccc2)o1)c1cn(-c2ccccc2)nc1-c1ccccc1 | -32.1% | 16.4 µM [falling, single point] | 29.1 µM [falling, single point] |
| Cc1nnc(C)n1/N=C/C=C/c1ccccc1 | -5.18% | 0.164 µM [falling, full curve, poor fit] | 0.116 µM [falling, full curve, poor fit] |
| COc1ccc(S(=O)(=O)Cc2ccccc2)cc1N | 7.65% | – | 0.366 µM [rising, partial curve] |
| CCOC(=O)CCCNC(=O)CN1C(=O)NC(CCc2ccccc2)C1=O (configuration not stated) | -6.6% | – | – |
| Clc1ccc(CSc2ccc(-c3ccccn3)nn2)cc1 | -3.73% | – | 0.13 µM [falling, full curve, poor fit] |

12 of the compounds above, with tabs.
SMILES	cell number change	AC50 [1]	AC50 [2]
O=C(COc1cccc(Oc2ccccc2)c1)Nc1ccc(SC(F)F)cc1	57.9%	29.1 µM [rising, single point]	–
CC(C)NS(=O)(=O)c1ccc(OCC(=O)NCCC2=CCCCC2)cc1	6.2%	–	0.0731 µM [falling, full curve, poor fit]
CCCCCCCCCCCCCCCC(O)C(N)CO (configuration not stated)	14.1%	–	0.0731 µM [falling, full curve, poor fit]
Cc1ccc(-c2nc(-c3ccncc3)no2)cc1Cl	24%	–	2.06 µM [rising, full curve]
CC1CC(C)(C)NC(=S)N1CCC(=O)N1c2ccccc2CC1C (configuration not stated)	46%	0.231 µM [rising, full curve, poor fit]	–
O=C(NC(Cc1ccc2c(c1)OCO2)C(=O)NC(Cc1ccccc1)C(=O)O)c1ccccc1 (configuration not stated)	4.96%	–	–
Cc1[nH][nH]c(=O)c1C(c1ccc(-c2ccccc2C(=O)O)o1)c1c(C)[nH][nH]c1=O	-29%	–	0.731 µM [rising, single point]
O=C(OCc1nnc(-c2ccccc2)o1)c1cn(-c2ccccc2)nc1-c1ccccc1	-32.1%	16.4 µM [falling, single point]	29.1 µM [falling, single point]
Cc1nnc(C)n1/N=C/C=C/c1ccccc1	-5.18%	0.164 µM [falling, full curve, poor fit]	0.116 µM [falling, full curve, poor fit]
COc1ccc(S(=O)(=O)Cc2ccccc2)cc1N	7.65%	–	0.366 µM [rising, partial curve]
CCOC(=O)CCCNC(=O)CN1C(=O)NC(CCc2ccccc2)C1=O (configuration not stated)	-6.6%	–	–
Clc1ccc(CSc2ccc(-c3ccccn3)nn2)cc1	-3.73%	–	0.13 µM [falling, full curve, poor fit]
